Measured data: PubChem BioAssay AID1224830 (NIAID, 2016)
Here is one part, drawn at random, of about 18,000 reagents tested. About 2,900 of all reagents (16%) count as active. 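Calls are made per well; low scores hint the gene aids the LPS response, high scores that it dampens it.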 Unmarked entries are inactive. Repeated entries: four replicate wells of each siRNA pool. Reagent sequences are not shown.

Test: 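Regulators of TLR4 signalling towards TNF-alpha in macrophage-like cells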 (primary screen)
Cells: human THP-1 monocytic leukaemia cells, TNF dual-luciferase reporter clone, PMA-differentiated to macrophage-like cells
Reagents: siRNA pool against human genes, 50 nM
Time to read-out: LPS for 4 h, given about 3 days after siRNA transfection
Challenge: bacterial LPS (TLR4 ligand), 10 ng/ml
Measurement: 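Ratio of firefly to renilla light, scaled to the plate median and expressed as a robust z-score per replicate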
Reading the numbers: TNF reporter robust z-score: higher = stronger TNF reporter response to LPS
Hit rule: 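Each well counts as active if its z-score is over 2.8 or under -1.5; controls are left without a call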

| Gene | TNF reporter robust z-score |
| --- | --- |
| CTSG (cathepsin G) | -0.6 |
| CTSG (cathepsin G) | 0.27 |
| CTSG (cathepsin G) | -0.41 |
| CTSG (cathepsin G) | 1.05 |
| PLAAT3 (phospholipase A and acyltransferase 3) | 1.82 |
| PLAAT3 (phospholipase A and acyltransferase 3) | 2.37 |
| PLAAT3 (phospholipase A and acyltransferase 3) | 3 (active) |
| PLAAT3 (phospholipase A and acyltransferase 3) | 3.51 (active) |
| ALX4 (ALX homeobox 4) | -0.21 |
| ALX4 (ALX homeobox 4) | -0.05 |
| ALX4 (ALX homeobox 4) | 0.52 |
| ALX4 (ALX homeobox 4) | 0.39 |
| ODAD3 (outer dynein arm docking complex subunit 3) | -0.63 |
| ODAD3 (outer dynein arm docking complex subunit 3) | -0.01 |
| ODAD3 (outer dynein arm docking complex subunit 3) | 0.1 |
| ODAD3 (outer dynein arm docking complex subunit 3) | -0.14 |
| CENPU (centromere protein U) | -0.01 |
| CENPU (centromere protein U) | 2.49 |
| CENPU (centromere protein U) | 0.61 |
| CENPU (centromere protein U) | 1.07 |
| MRPL24 (mitochondrial ribosomal protein L24) | 0.07 |
| MRPL24 (mitochondrial ribosomal protein L24) | 0.57 |
| MRPL24 (mitochondrial ribosomal protein L24) | -0.44 |
| MRPL24 (mitochondrial ribosomal protein L24) | -0.03 |
| SMG9 (SMG9 nonsense mediated mRNA decay factor) | 2.61 |
| SMG9 (SMG9 nonsense mediated mRNA decay factor) | 1.53 |
| SMG9 (SMG9 nonsense mediated mRNA decay factor) | 0.88 |
| SMG9 (SMG9 nonsense mediated mRNA decay factor) | 2.48 |
| CHI3L2 (chitinase 3 like 2) | -0.69 |
| CHI3L2 (chitinase 3 like 2) | -0.11 |
| CHI3L2 (chitinase 3 like 2) | -0.54 |
| CHI3L2 (chitinase 3 like 2) | -0.61 |
| KLHL38 (kelch like family member 38) | -0.47 |
| KLHL38 (kelch like family member 38) | -0.22 |
| KLHL38 (kelch like family member 38) | -0.63 |
| KLHL38 (kelch like family member 38) | -0.32 |
| LSAMP (limbic system associated membrane protein) | 0.61 |
| LSAMP (limbic system associated membrane protein) | 0.4 |
| LSAMP (limbic system associated membrane protein) | 0.84 |
| LSAMP (limbic system associated membrane protein) | 0.57 |
| PPP1R11 (protein phosphatase 1 regulatory inhibitor subunit 11) | -0.14 |
| PPP1R11 (protein phosphatase 1 regulatory inhibitor subunit 11) | 0 |
| PPP1R11 (protein phosphatase 1 regulatory inhibitor subunit 11) | -1.61 (active) |
| PPP1R11 (protein phosphatase 1 regulatory inhibitor subunit 11) | -1.09 |
| VIM (vimentin) | -0.99 |
| VIM (vimentin) | -1.1 |
| VIM (vimentin) | -0.13 |
| VIM (vimentin) | -0.52 |
| METTL1 (methyltransferase 1, tRNA methylguanosine) | -0.61 |
| METTL1 (methyltransferase 1, tRNA methylguanosine) | 0.09 |
| METTL1 (methyltransferase 1, tRNA methylguanosine) | -0.68 |
| METTL1 (methyltransferase 1, tRNA methylguanosine) | 1 |
| CD226 (CD226 molecule) | -0.01 |
| CD226 (CD226 molecule) | 0.01 |
| CD226 (CD226 molecule) | 0.02 |
| CD226 (CD226 molecule) | -1.41 |
| RNF170 (ring finger protein 170) | 0.37 |
| RNF170 (ring finger protein 170) | -0.55 |
| RNF170 (ring finger protein 170) | -1.71 (active) |
| RNF170 (ring finger protein 170) | -0.93 |
| PSMC3IP (PSMC3 interacting protein) | 0.04 |
| PSMC3IP (PSMC3 interacting protein) | -0.33 |
| PSMC3IP (PSMC3 interacting protein) | -1.22 |
| PSMC3IP (PSMC3 interacting protein) | -0.2 |
| PLRG1 (pleiotropic regulator 1) | -1.15 |
| PLRG1 (pleiotropic regulator 1) | -0.51 |
| PLRG1 (pleiotropic regulator 1) | -1.16 |
| PLRG1 (pleiotropic regulator 1) | -0.87 |
| HOXD8 (homeobox D8) | -0.25 |
| HOXD8 (homeobox D8) | -0.08 |
| HOXD8 (homeobox D8) | -0.55 |
| HOXD8 (homeobox D8) | 1.42 |
| PRELP (proline and arginine rich end leucine rich repeat protein) | -1.03 |
| PRELP (proline and arginine rich end leucine rich repeat protein) | 0.55 |
| PRELP (proline and arginine rich end leucine rich repeat protein) | -0.05 |
| PRELP (proline and arginine rich end leucine rich repeat protein) | -0.21 |
| ADNP (activity dependent neuroprotector homeobox) | -0.76 |
| ADNP (activity dependent neuroprotector homeobox) | 1.26 |
| ADNP (activity dependent neuroprotector homeobox) | 0.66 |
| ADNP (activity dependent neuroprotector homeobox) | 0.28 |
| SCML1 (Scm polycomb group protein like 1) | 1.62 |
| SCML1 (Scm polycomb group protein like 1) | 0.53 |
| SCML1 (Scm polycomb group protein like 1) | 0.45 |
| SCML1 (Scm polycomb group protein like 1) | 0.17 |
| RSPH14 (radial spoke head 14 homolog) | -0.7 |
| RSPH14 (radial spoke head 14 homolog) | -0.64 |
| RSPH14 (radial spoke head 14 homolog) | -1.06 |
| RSPH14 (radial spoke head 14 homolog) | -0.36 |
| ATP8A1 (ATPase phospholipid transporting 8A1) | -0.32 |
| ATP8A1 (ATPase phospholipid transporting 8A1) | 0.04 |
| ATP8A1 (ATPase phospholipid transporting 8A1) | -0.19 |
| ATP8A1 (ATPase phospholipid transporting 8A1) | 0.38 |
| PLSCR1 (phospholipid scramblase 1) | -1.23 |
| PLSCR1 (phospholipid scramblase 1) | -0.76 |
| PLSCR1 (phospholipid scramblase 1) | -1.38 |
| PLSCR1 (phospholipid scramblase 1) | -0.39 |
| PLA2G4F (phospholipase A2 group IVF) | -1.29 |
| PLA2G4F (phospholipase A2 group IVF) | -0.9 |
| PLA2G4F (phospholipase A2 group IVF) | -0.57 |
| PLA2G4F (phospholipase A2 group IVF) | -0.2 |
| IMPA1 (inositol monophosphatase 1) | -1.22 |
| IMPA1 (inositol monophosphatase 1) | -0.07 |
| IMPA1 (inositol monophosphatase 1) | -0.36 |
| IMPA1 (inositol monophosphatase 1) | -0.28 |
| ZNF253 (zinc finger protein 253) | -1.13 |
| ZNF253 (zinc finger protein 253) | -0.1 |
| ZNF253 (zinc finger protein 253) | -0.52 |
| ZNF253 (zinc finger protein 253) | -0.32 |
| TNXB (tenascin XB) | -0.56 |
| TNXB (tenascin XB) | -0.02 |
| TNXB (tenascin XB) | -0.18 |
| TNXB (tenascin XB) | -0.54 |
| PITPNM1 (phosphatidylinositol transfer protein membrane associated 1) | 0.45 |
| PITPNM1 (phosphatidylinositol transfer protein membrane associated 1) | 0.89 |
| PITPNM1 (phosphatidylinositol transfer protein membrane associated 1) | 0.51 |
| PITPNM1 (phosphatidylinositol transfer protein membrane associated 1) | 3.83 (active) |
| ZNF707 (zinc finger protein 707) | -0.17 |
| ZNF707 (zinc finger protein 707) | 0.87 |
| ZNF707 (zinc finger protein 707) | 0.73 |
| ZNF707 (zinc finger protein 707) | 1.08 |
| TTC36 (tetratricopeptide repeat domain 36) | 0.87 |
| TTC36 (tetratricopeptide repeat domain 36) | -0.67 |
| TTC36 (tetratricopeptide repeat domain 36) | 1.77 |
| TTC36 (tetratricopeptide repeat domain 36) | 1.34 |
| TBX5 (T-box transcription factor 5) | -0.84 |
| TBX5 (T-box transcription factor 5) | 0.36 |
| TBX5 (T-box transcription factor 5) | -0.07 |
| TBX5 (T-box transcription factor 5) | 0.4 |
| MADD (MAP kinase activating death domain) | -1.09 |
| MADD (MAP kinase activating death domain) | -1.43 |
| MADD (MAP kinase activating death domain) | -1.62 (active) |
| MADD (MAP kinase activating death domain) | 0.22 |
| MRPS21 (mitochondrial ribosomal protein S21) | 0.62 |
| MRPS21 (mitochondrial ribosomal protein S21) | 1.37 |
| MRPS21 (mitochondrial ribosomal protein S21) | 0.81 |
| MRPS21 (mitochondrial ribosomal protein S21) | -0.84 |
| THAP7 (THAP domain containing 7) | -1.52 (active) |
| THAP7 (THAP domain containing 7) | -0.78 |
| THAP7 (THAP domain containing 7) | -1.29 |
| THAP7 (THAP domain containing 7) | -0.49 |

Entries above called active:
| Gene | TNF reporter robust z-score |
| --- | --- |
| PLAAT3 (phospholipase A and acyltransferase 3) | 3 (active) |
| PLAAT3 (phospholipase A and acyltransferase 3) | 3.51 (active) |
| PPP1R11 (protein phosphatase 1 regulatory inhibitor subunit 11) | -1.61 (active) |
| RNF170 (ring finger protein 170) | -1.71 (active) |
| PITPNM1 (phosphatidylinositol transfer protein membrane associated 1) | 3.83 (active) |
| MADD (MAP kinase activating death domain) | -1.62 (active) |
| THAP7 (THAP domain containing 7) | -1.52 (active) |
